Data source: PubChem BioAssay AID504786 (Drosophila RNAi Screening Center, 2011)

Aim: 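Knock-downs reducing HIF reporter induction by the iron chelator DFO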 (primary screen)
System: Drosophila S2 cells with a stable HIF luciferase reporter
Reagent: long dsRNA against Drosophila genes, about 0.2 µg dsRNA per well of a 384-well plate
Timing: three days of knock-down, then 20 h of DFO before reading
Challenge: desferrioxamine (DFO) at 100 µM, an iron chelator that mimics hypoxia, for 20 h
Read-out: 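Firefly luciferase driven by the mouse ldh-a hypoxia-response element, measured after 20 h of 100 µM DFO; z-scores per plate, higher means more signal lost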
Direction: z-score: higher = stronger loss of HIF reporter signal
The screen tested about 21,000 reagents; this is an unselected part of those with a known target gene and a result. 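Primary screen; positive scores mean lost reporter signal, so the sign may be inverted from the usual convention.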 A plus sign joins genes that one reagent is predicted to hit. Further read-outs or replicates are left out here.

z-score, replicate 1 | z-score, replicate 2 | Target gene | amplicon
-0.4 | -0.2 | nyo | DRSC15029
-0.3 | 0.2 | nyo | DRSC15030
0.7 | 1.1 | BuGZ | DRSC02642
-0.3 | -0.3 | BuGZ | DRSC02643
-0.4 | -0.4 | Faf2 | DRSC03325
-0.3 | -0.2 | EMC10 | DRSC11850
-0.4 | 0.6 | Alp10 | DRSC09749
-0.2 | 0.2 | mRpL50 | DRSC11015
-0.4 | -0.3 | DCTN2-p50 | DRSC07132
-0.2 | -0.2 | CG15820 | DRSC08480
-0.3 | -0.1 | CG8841 | DRSC07286
-0.3 | -0.8 | Pfdn5 | DRSC16183
-0.4 | -0.7 | CG14673 (retired record) | DRSC12259
-0.3 | -0.7 | CG14545 | DRSC14889
-0.1 | -0.2 | CG10274 | DRSC09716
1.5 | 0.5 | ix | DRSC06325
-0.2 | 0.2 | CG9518 | DRSC20194
1.4 | 4.3 | CG44838 | DRSC10330
-0.2 | -0.1 | CG44838 | DRSC10371
-0.1 | 0.2 | CG14286 | DRSC14767
0 | -0.6 | Gr8a | DRSC18043
-0.4 | -0.5 | Lrr47 | DRSC03365
-0.5 | -1 | baz | DRSC20309
-0.2 | -0.1 | CG33340 | DRSC14615
-0.1 | -0.3 | CG33640 | DRSC01324
-0.2 | -0.2 | CG7607 | DRSC10889
-0.2 | -0.2 | CG31406 | DRSC12777
-0.5 | -0.4 | CG8958 | DRSC20134
-0.2 | 0 | betaGlu | DRSC15419
0 | 0.8 | Eip75B | DRSC11161
-0.3 | -0.5 | CG14630 | DRSC18166
-0.3 | -0.1 | CG14630 | DRSC18653
-0.3 | -0.1 | Tm2 | DRSC16887
-0.3 | -0.5 | Npc2c | DRSC15523
-0.3 | -0.6 | SLIRP1 + anox | DRSC20542
-0.4 | -0.9 | CG11382 | DRSC18624
-0.2 | 0.2 | Stip1 | DRSC00756
0.2 | 0 | eIF4E5 | DRSC10975
-0.2 | -0.3 | SMSr | DRSC10998
-0.2 | 1.2 | SMSr | DRSC10999
-0.4 | -0.4 | Tsf1 | DRSC20296
-0.2 | -0.4 | Msh6 | DRSC10759
0.1 | -0.3 | CG7685 | DRSC16285
-0.2 | -0.3 | CG6966 | DRSC16156
-0.5 | -1 | eIF3k | DRSC04056
-0.2 | -0.1 | CG15369 | DRSC18041
-0.2 | 0.1 | fwd | DRSC08580
0 | -0.3 | CG5565 | DRSC00690
-0.3 | -0.2 | CG11470 | DRSC14313
-0.4 | -0.1 | CG42820 + CG42819 | DRSC02264
-0.2 | -0.4 | CG42820 + CG42819 | DRSC02265
0.4 | 0 | TBC1d7 + mRpS24 | DRSC14611
-0.2 | 0.3 | GILT3 | DRSC14672
-0.2 | -0.4 | Dsk | DRSC12347
-0.3 | -0.7 | CG9682 | DRSC16536
-0.4 | -0.3 | CG13331 | DRSC06366
-0.3 | -0.7 | Scsalpha2 | DRSC16003
-0.2 | 0 | ppk15 | DRSC14733
-0.4 | -0.1 | par-6 | DRSC20359
-0.3 | -0.4 | CG15461 | DRSC20532
-0.4 | -0.4 | Gr32a | DRSC02400
-0.3 | -0.5 | tant | DRSC11401
0.3 | 0.2 | Octbeta1R | DRSC16134
0 | -0.1 | CG30393 | DRSC04253
0.1 | 0.2 | CG18649 | DRSC10334
-0.4 | -0.5 | Hasp | DRSC02022
-0.3 | 0 | Cyp1 | DRSC20234
-0.3 | 0.2 | CG14736 | DRSC14956
-0.2 | 0.2 | CG6770 | DRSC02992
-0.3 | -0.3 | CG10184 | DRSC14204
-0.5 | -0.4 | Tnpo | DRSC11309
-0.3 | -0.6 | CG10431 | DRSC02055
-0.2 | -0.4 | pwn | DRSC06035
-0.6 | -0.4 | CG34316 | DRSC13080
-0.3 | -0.4 | CG17019 | DRSC06642
-0.2 | 0.1 | CG4757 | DRSC14130
-0.4 | 0 | Nep7 | DRSC15830
-0.2 | -0.5 | Arts + Apl | DRSC10349
-0.3 | -0.8 | CG6454 | DRSC16044
-0.4 | -0.3 | CR18166 | DRSC17260
-0.1 | 1.1 | CR18166 | DRSC18147
-0.5 | 0.1 | Eh | DRSC16660
0.4 | 0 | Usp15-31 | DRSC04426
0.6 | 0.9 | Usp15-31 | DRSC04532
-0.3 | -0.4 | CG18467 | DRSC06758
-0.1 | -0.1 | PGRP-LC | DRSC08980
-0.3 | -0.3 | PGRP-LC | DRSC10416
-0.4 | -0.2 | PGRP-LC | DRSC10417
-0.1 | -0.6 | CG1943 | DRSC12576
-0.2 | 0 | CG10165 | DRSC02017
-0.3 | -0.6 | Syx6 | DRSC07032
-0.3 | 0.3 | wtrw | DRSC14241
-0.2 | 0.5 | wtrw | DRSC15278
-0.3 | -0.5 | CG10505 | DRSC04075
-0.3 | -0.2 | JMJD4 | DRSC03025
-0.4 | 0.9 | Obp99d | DRSC15046
-0.3 | -0.5 | Cyp28d2 | DRSC03299
-0.1 | -0.1 | insv | DRSC00579
3 | 1.5 | Amun | DRSC19847
-0.2 | 0.3 | CG31560 | DRSC12136
-0.4 | -0.8 | CG31546 | DRSC12317
-0.1 | -0.2 | ND-42 | DRSC16754
-0.1 | -0.2 | Remo | DRSC19710
0 | 0 | Pdhb | DRSC14420
-0.1 | -0.2 | nebu | DRSC09807
-0.3 | -0.1 | nebu | DRSC09808

Not a retest: entries from further up.
z-score, replicate 1 | z-score, replicate 2 | Target gene | amplicon
-0.3 | 0 | Cyp1 | DRSC20234
-0.3 | 0.2 | CG14736 | DRSC14956
-0.2 | 0.2 | CG6770 | DRSC02992
-0.3 | -0.3 | CG10184 | DRSC14204
-0.5 | -0.4 | Tnpo | DRSC11309
-0.3 | -0.6 | CG10431 | DRSC02055
-0.2 | -0.4 | pwn | DRSC06035
-0.6 | -0.4 | CG34316 | DRSC13080
-0.3 | -0.4 | CG17019 | DRSC06642
-0.2 | 0.1 | CG4757 | DRSC14130
-0.4 | 0 | Nep7 | DRSC15830
-0.2 | -0.5 | Arts + Apl | DRSC10349
-0.3 | -0.8 | CG6454 | DRSC16044
